# Data as given in PubChem BioAssay AID1347076 (National Center for Advancing Translational Sciences (NCATS), 2019).
# In all, about 400,000 compounds went through this assay and about 13,000 (3.2%) were called active. This list was built around the results that the source calls inconclusive (neither active nor inactive); the mix of calls is not that of the screen. Calls come from the whole dose curve; as a rule, active = well fitted cell-killing curve with a large enough effect; inconclusive = small, poorly fitted or top-dose-only effect, or effect the other way; inactive = flat fitted curve, though single readings scatter. Potencies beside an inconclusive call are fits to weak or partial responses and may not hold up.
# Assay: qHTS assay for MDR1-selective chemotherapeutics: Primary screen using the drug-selected MDR subline cells KB-V1; note: nearly all actives have a fitted effect of over 60% in size
# Conditions: KB-V1 MDR cells viability, CellTiter-Glo, 72 h; activity change, negative = cytotoxicity: at 46.1 µM (top of the series)
# Summary of the method: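 Potencies derive from concentration-effect curves fitted to normalized luminescence (CellTiter-Glo) of KB-V1 cells treated for 72 h at 37 degrees C in phenol-red-free DMEM containing 10% FBS.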
# % is set by controls: 0 for no effect and ±100 for the full control effect; potency is the fitted concentration of half-maximal effect.
Structure (SMILES),Potency,"activity change, negative = cytotoxicity"
O=C1/C(=C/c2ccc(S(=O)(=O)O)cc2S(=O)(=O)O)CCc2ccccc21,"inconclusive: 20.6 µM [rising, single point]",
CC(C)C(NS(=O)(=O)c1cccc2nsnc12)C(=O)N1CCc2ccccc2C1 (stereo unspecified),active: 18.4 µM,
Cc1ccc([C@H]2C[C@H](O)[C@@H](n3cc(-c4ccc(F)cc4)nn3)CN2C(=O)c2cccs2)cc1,"inconclusive: 23.1 µM [cytotoxic, partial curve]",
O=C1N/C(=N\S(=O)(=O)c2ccccc2)S/C1=C\c1cc([N+](=O)[O-])ccc1O,"inconclusive: 29.1 µM [rising, single point]",
O=C(Cn1sc2ccccc2c1=O)NC12CC3CC(CC(C3)C1)C2,"inconclusive: 16.4 µM [cytotoxic, single point]",
CC1=C(C(=O)OC(C)C)C(c2ccccc2)NC(=S)N1C (stereo unspecified),active: 18.4 µM,
O=[N+]([O-])c1ccc(CN2CC(N3CCCC3)CS2(=O)=O)cc1 (stereo unspecified),,inactive: 8.98%
COC(=O)c1c(NC(C)=O)sc2c1CCCCC2,,inactive: 13.8%
O=C(CSc1nc2c(c(=O)[nH]1)CCCC2)Nc1ccc(Cl)cc1F,"inconclusive: 29.1 µM [cytotoxic, single point]",
O=C(c1ccccc1)c1ccc(N2CCOCC2)c(NC(=O)c2ccco2)c1,"inconclusive: 14.6 µM [cytotoxic, partial curve, poor fit]",
CC(C)Cn1c(=O)c(C(=O)N/N=C/c2cccc(F)c2)c(O)c2ccccc21,active: 2.91 µM,
C=CCN(c1ccc(C(=O)N2CCN(c3ccc(F)cc3)CC2)cc1)S(C)(=O)=O,"inconclusive: 16.4 µM [cytotoxic, single point]",
Cc1ccc(CNC(=O)c2ccc3c(=O)n(CC4CCCO4)c(=S)[nH]c3c2)cc1 (stereo unspecified),active: 16.4 µM,
CCOC(=O)C1=C(C)N=C(/N=C/N(C)C)SC1c1ccccc1 (stereo unspecified),"inconclusive: 29.1 µM [cytotoxic, single point]",
FC(F)(F)c1cc(N2CCNCC2)c2ccccc2n1,"inconclusive: 5.8 µM [cytotoxic, partial curve]",
CC(C)CCOCc1nc2sc3c(c2c(=O)[nH]1)CCC(C)C3 (stereo unspecified),"inconclusive: 16.4 µM [cytotoxic, single point]",
COc1cccc(CN2CCc3nc(Nc4ccc5c(c4)OCCO5)ncc3C2)c1OC,,inactive: -11%
CN(C)C(=O)COC(=O)c1ccccc1Sc1ccccc1C#N,"inconclusive: 18.4 µM [cytotoxic, single point]",
COc1ccc(C(=O)NC2CCN(C(=O)NC3CCCCC3)CC2)cc1,"inconclusive: 29.1 µM [cytotoxic, single point]",
CCc1cc2c(=O)[nH]c(-c3ccccn3)nc2s1,"inconclusive: 1.46 µM [cytotoxic, full curve, poor fit]",
O=C(CCS(=O)(=O)c1ccc(F)cc1)Nc1nc(-c2ccncc2)cs1,,inactive: -22.9%
COC(=O)[C@@]12C[C@@H](CC(=O)N3CCC(c4ccccc4)CC3)C(=O)N(Cc3ccco3)C1=CCC(C)(C)C2,"inconclusive: 2.59 µM [cytotoxic, partial curve]",

Structure (SMILES),Potency,"activity change, negative = cytotoxicity"
COCCn1nnnc1C(c1ccc(OC)cc1OC)N1CCN(c2ccccc2)CC1 (stereo unspecified),"inconclusive: 9.2 µM [cytotoxic, partial curve]",
Cc1cc(C(=O)N/N=C/c2ccc(-c3ccc(C)c(Cl)c3)o2)n[nH]1,"inconclusive: 20.6 µM [cytotoxic, partial curve, poor fit]",
O=C(CSc1nnc(C23CC4CC(CC(C4)C2)C3)o1)Nc1ccc(N2CCOCC2)c(Cl)c1,"inconclusive: 12.6 µM [cytotoxic, single point]",
O=C1C(Cl)=C(NS(=O)(=O)c2ccc([N+](=O)[O-])cc2)C(=O)c2ccccc21,"inconclusive: 29.1 µM [cytotoxic, single point]",
CCn1nccc1C(=O)Nc1cc(Cl)cc(Cl)c1,"inconclusive: 16.4 µM [cytotoxic, single point]",
CC(C)CN(CC(C)C)c1nc(-c2ccc(Cl)cc2)nc2ccccc12,,inactive: -5.39%
Cc1cc(Cl)ccc1OCC(=O)OCC(=O)c1c(N)n(C)c(=O)n(C)c1=O,"inconclusive: 14.6 µM [rising, partial curve, poor fit]",
O=C(C(c1ccccc1)c1ccccc1)N1CCC(c2nc(-c3ccccc3Cl)no2)CC1,"inconclusive: 25.9 µM [cytotoxic, partial curve, poor fit]",
CCOc1ccc(NC(=S)/C(=C(\[O-])c2ccc(C)c([N+](=O)[O-])c2)[n+]2ccccc2)cc1,,inactive: 18.7%
CCOC(=O)c1cc([N+](=O)[O-])sc1N,"inconclusive: 4.61 µM [rising, full curve]",
Cn1c(N)c(C(=O)CCl)c(=O)n(Cc2ccccc2)c1=O,,inactive: -4.35%
Cc1c(Cl)cccc1NC(=O)c1ccc2c(c1)nnn2C1CCCC1,"inconclusive: 23.1 µM [cytotoxic, single point]",
C=CCNC(=O)CSc1nnc(-c2ccccc2Br)n1-c1cccc(C(F)(F)F)c1,"inconclusive: 32.6 µM [cytotoxic, partial curve, poor fit]",
O=C(COC(=O)CC1CCCC1)Nc1ccccc1[N+](=O)[O-],,inactive: 0%
COC(=O)[C@@H](NCc1cccc(CN[C@H](C(=O)OC)c2ccccc2)c1)c1ccccc1,"inconclusive: 29.1 µM [cytotoxic, single point]",
CCCCCCOC1(c2ccccc2)OC(=O)c2ccccc21 (stereo unspecified),"inconclusive: 13 µM [cytotoxic, partial curve, poor fit]",
CC1=NN(c2ccccc2)C(=O)/C1=C\c1cn(C)c2ccccc12,"inconclusive: 29.1 µM [cytotoxic, single point]",
Cc1csc(NC(=O)CSc2nc(=O)cc(N)n2-c2ccc(F)cc2)n1,"inconclusive: 3.26 µM [rising, full curve, poor fit]",
COc1ccc(Cl)cc1NC(=O)Cn1c(=O)n(Cc2nc(C)no2)c(=O)c2ccccc21,,inactive: -4.23%
CCN(CC)S(=O)(=O)c1cccc(NC(=O)c2ccc(Br)cc2)c1,active: 6.51 µM,
Cc1cccc(C(=O)OCC(=O)Nc2c(C)n(C)n(-c3ccccc3)c2=O)c1,,inactive: -15.9%
O=C(N/N=C/c1ccc2c(c1)OCO2)c1cc(-c2ccco2)nc2ccccc12,"inconclusive: 29.1 µM [cytotoxic, single point]",

Structure (SMILES),Potency,"activity change, negative = cytotoxicity"
CCc1ccc(NC(=O)c2ccc3c(=O)n4nc(Nc5ccccc5C)sc4nc3c2)cc1,"inconclusive: 18.4 µM [cytotoxic, single point]",
O=C(NCCCN1CCN(c2ccc(F)cc2)CC1)C1COc2ccccc2C1 (stereo unspecified),"inconclusive: 29.1 µM [cytotoxic, single point]",
O=C(Nc1nnc(CCS(=O)(=O)c2ccc3ccccc3c2)s1)c1cccs1,"inconclusive: 1.84 µM [cytotoxic, full curve]",
COc1ccccc1NC(=O)CCCC(=O)OCC(=O)c1ccc(F)cc1,"inconclusive: 25.9 µM [rising, partial curve]",
COc1ccc(CN(C(=O)c2snc(C(N)=O)c2N)C(C(=O)NC2CCCC2)c2ccc(OC)cc2)cc1 (stereo unspecified),"inconclusive: 29.1 µM [cytotoxic, single point]",
CC(C)CN(C(=O)c1ccc(=O)n(C)n1)c1nc2ccccc2s1,,inactive: 0%
Cn1c(-c2ccc(Cl)cc2)cnc1NCc1cc2c(cc1[N+](=O)[O-])OCO2,"inconclusive: 16.4 µM [cytotoxic, partial curve]",
CCCCn1c(N)c(N(CCOC)C(=O)CN2C(=O)C3CCCCC3C2=O)c(=O)[nH]c1=O (stereo unspecified),"inconclusive: 32.6 µM [rising, single point]",
Cc1nn(C(C)C(=O)NCCC2=CCCCC2)c(=O)c2nn(-c3ccccc3)c(C)c12 (stereo unspecified),"inconclusive: 14.6 µM [cytotoxic, single point]",
CN1C(=O)c2cccc3c(S(=O)(=O)Nc4ccccc4F)ccc1c23,"inconclusive: 4.11 µM [cytotoxic, full curve, poor fit]",
Cc1ccc(C(=O)Nc2ncc3c(Cl)cccc3n2)cc1,active: 18.4 µM,
CCCCN(C)S(=O)(=O)c1cc(Br)cc2c1N(C(=O)C1CC1)CC2,"inconclusive: 16.4 µM [cytotoxic, partial curve]",
COc1cccc(C(C)(O)c2nc(-c3cnc4ccccc4c3)cs2)c1 (stereo unspecified),,inactive: 0%
COCCCNC(=S)NC1CC2CCC(C1)N2Cc1ccccc1 (stereo unspecified),,inactive: -8.2%
COc1ccc(NC(C)=O)cc1S(=O)(=O)NC(C)c1ccc(-n2ccnc2)cc1 (stereo unspecified),"inconclusive: 11.6 µM [rising, partial curve, poor fit]",
COc1ccc(CCNC(=O)Cn2c(=O)cc(C(F)(F)F)c3c(C)nn(C)c32)cc1OC,,inactive: 2.69%
Cc1cccc(CCNC(=O)C2CCN(S(=O)(=O)c3cccc4nsnc34)CC2)c1,"inconclusive: 6.51 µM [cytotoxic, partial curve]",
O=C(Nc1nnc(SCc2ccccn2)s1)C1CC(=O)N(c2ccc(F)cc2)C1 (stereo unspecified),"inconclusive: 29.1 µM [cytotoxic, single point]",
CCCCC1(CC(=O)OCC)C(=O)N(c2ccccc2)N(c2ccccc2)C1=O,active: 4.61 µM,
CC(Cn1nnc2ccccc21)C(=O)O (stereo unspecified),"inconclusive: 29.1 µM [rising, single point]",
COc1ccc(-c2noc(N(C)CC(=O)Nc3cccc(C(F)(F)F)c3)n2)cc1,"inconclusive: 29.1 µM [cytotoxic, single point]",
CC(C)Cn1c(N)c(C(=O)COC(=O)c2cc(F)cc(F)c2)c(=O)n(C)c1=O,,inactive: 8.65%

# Pulled by structure from the list above, five records:
Structure (SMILES),Potency,"activity change, negative = cytotoxicity"
CCc1ccc(NC(=O)c2ccc3c(=O)n4nc(Nc5ccccc5C)sc4nc3c2)cc1,"inconclusive: 18.4 µM [cytotoxic, single point]",
CCOC(=O)c1cc([N+](=O)[O-])sc1N,"inconclusive: 4.61 µM [rising, full curve]",
COc1ccc(CN(C(=O)c2snc(C(N)=O)c2N)C(C(=O)NC2CCCC2)c2ccc(OC)cc2)cc1 (stereo unspecified),"inconclusive: 29.1 µM [cytotoxic, single point]",
CC(C)Cn1c(N)c(C(=O)COC(=O)c2cc(F)cc(F)c2)c(=O)n(C)c1=O,,inactive: 8.65%
O=C1/C(=C/c2ccc(S(=O)(=O)O)cc2S(=O)(=O)O)CCc2ccccc21,"inconclusive: 20.6 µM [rising, single point]",
